According to paper PMC9463353:
No constants are given. Whether binding was seen depends on the method and setting. In cells and extracts the contact can be indirect. Some binding calls cover weakened binding; strength is not graded here.

Chains of the proteins cited; added tags and fusions are not shown. Residues count along the entry.
UniProt P14416: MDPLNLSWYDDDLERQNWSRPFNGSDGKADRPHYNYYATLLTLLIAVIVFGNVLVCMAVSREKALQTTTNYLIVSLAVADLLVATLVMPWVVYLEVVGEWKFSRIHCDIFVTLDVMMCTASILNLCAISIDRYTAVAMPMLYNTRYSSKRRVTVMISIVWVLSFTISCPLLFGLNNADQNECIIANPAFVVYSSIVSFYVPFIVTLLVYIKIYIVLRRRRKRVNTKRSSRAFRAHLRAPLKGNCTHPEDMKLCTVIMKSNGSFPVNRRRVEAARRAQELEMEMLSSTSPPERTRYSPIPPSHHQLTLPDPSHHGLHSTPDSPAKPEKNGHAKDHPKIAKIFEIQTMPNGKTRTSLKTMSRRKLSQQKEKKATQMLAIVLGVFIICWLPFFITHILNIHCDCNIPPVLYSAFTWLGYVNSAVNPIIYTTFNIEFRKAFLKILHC
UniProt P31424, residues 21-1203: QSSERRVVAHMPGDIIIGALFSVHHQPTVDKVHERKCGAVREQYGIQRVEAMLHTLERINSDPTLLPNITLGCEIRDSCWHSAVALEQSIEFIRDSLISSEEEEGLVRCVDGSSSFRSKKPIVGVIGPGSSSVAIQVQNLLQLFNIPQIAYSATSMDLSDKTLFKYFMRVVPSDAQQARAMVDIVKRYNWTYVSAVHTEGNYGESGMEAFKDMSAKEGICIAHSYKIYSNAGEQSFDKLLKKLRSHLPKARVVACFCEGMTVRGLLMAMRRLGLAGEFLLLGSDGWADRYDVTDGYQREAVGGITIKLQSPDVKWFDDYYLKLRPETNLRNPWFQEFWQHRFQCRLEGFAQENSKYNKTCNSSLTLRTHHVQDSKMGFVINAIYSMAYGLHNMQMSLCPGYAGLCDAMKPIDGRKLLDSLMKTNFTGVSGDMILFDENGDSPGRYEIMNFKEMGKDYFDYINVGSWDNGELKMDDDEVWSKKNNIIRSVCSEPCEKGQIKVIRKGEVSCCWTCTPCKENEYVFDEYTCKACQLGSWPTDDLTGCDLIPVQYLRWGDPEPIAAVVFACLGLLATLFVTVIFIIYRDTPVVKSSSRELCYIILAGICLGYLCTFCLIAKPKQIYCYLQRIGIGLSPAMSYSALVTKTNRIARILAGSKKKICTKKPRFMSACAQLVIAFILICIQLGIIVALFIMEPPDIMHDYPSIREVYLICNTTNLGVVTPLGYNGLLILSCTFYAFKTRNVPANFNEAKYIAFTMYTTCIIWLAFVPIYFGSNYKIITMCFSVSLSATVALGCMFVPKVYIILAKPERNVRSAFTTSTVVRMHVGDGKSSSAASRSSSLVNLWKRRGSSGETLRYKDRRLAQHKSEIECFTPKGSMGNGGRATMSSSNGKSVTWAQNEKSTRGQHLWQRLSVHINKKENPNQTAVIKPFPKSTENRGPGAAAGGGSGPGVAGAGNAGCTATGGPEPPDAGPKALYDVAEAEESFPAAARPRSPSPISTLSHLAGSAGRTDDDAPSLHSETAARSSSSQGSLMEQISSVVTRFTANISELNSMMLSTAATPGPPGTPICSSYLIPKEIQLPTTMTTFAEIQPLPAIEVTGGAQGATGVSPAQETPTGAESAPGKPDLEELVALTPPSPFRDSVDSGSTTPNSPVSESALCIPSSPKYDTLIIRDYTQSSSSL

What was measured:
[1] = molecular target: dopamine D2 receptor expressed in HEK293T cells for in situ PLA, radioligand and cAMP experiments (UniProt P14416); assay: proximity ligation; in situ PLA (Duolink) in transiently co-transfected HEK293T cells; mouse anti-D2R (MABN53) and rabbit anti-mGluR5 (AB5675); without transient co-expression of A2AR
[2] = molecular target: dopamine D2 receptor expressed in HEK293T cells for in situ PLA, radioligand and cAMP experiments (UniProt P14416); assay: proximity ligation; in situ PLA (Duolink) in transiently co-transfected HEK293T cells; mouse anti-D2R (MABN53) and rabbit anti-mGluR5 (AB5675); with transient co-expression of A2AR

**Q.** What does the source list for “metabotropic glutamate receptor type 5 expressed in HEK293T cells for in situ PLA, radioligand and cAMP experiments (from UniProt P31424 21-1203)”?
**A.** binding [1]: binds weakly; binding [2]: binds
